Binding data for 1 molecule are collected here from paper PMC5955987.

The experiment concerns the target Fur, ferric uptake regulator of Acinetobacter baumannii (Acinetobacter baumannii) (UniProt Q9ZAJ4). Kind of experiment: two-hybrid; yeast MaV203, Gal4 DB and AD fusions; 0.75 mM FeCl3 in the growth medium; under all conditions tested.

Results are given in words; binding and its absence hold for the method and conditions named. Some results given as binding are weak or reduced against the parent protein; the word gives no strength.

B1: Fur, ferric uptake regulator of Acinetobacter baumannii (protein, UniProt Q9ZAJ4 1-145)
chain: MPISNQDLRKAGLKVTLPRIKILELLENSKQHHLSAEDIYKTLLEQGEDVGLATVYRVLTQFEAAGIIQRHHFENNHSVFEIMQEDHHDHLVCQNCNKVIEFTNDVIEKEQHSVAEQHGFTLTGHSLNLYGYCNEPECQEALRKK
Regarding B1, the binding entry is “binds”.
